According to patent publication US6261768:
For at least one entry, the source does not settle the construct or the ends of the probe. For some assays here: Negatives hold for the conditions tested.

Legend:
Experiment in all cases: enzyme reaction in vitro
[1] = system: AvrII restriction endonuclease; conditions: purified native protein, protein details: New England Biolabs, only the site is given
[2] = system: BsaJI restriction endonuclease; conditions: cleaves; purified native protein; protein details: New England Biolabs; only the site is given
[3] = system: BstNI restriction endonuclease; conditions: purified native protein, protein details: New England Biolabs
[4] = system: BslI restriction endonuclease; conditions: wild-type amplification inhibited; pH 8.5, 1 mM DTT, 6 mM MgCl2; purified native protein; protein details: New England Biolabs

Sequence: TATAAACTTGTGGTAGTTGGACCTAG / GGATGACTCATTAAGGCACTCTTGCCTACGCCC [A549 mutant AG amplicon (5BKIT/3AKIP, 58 bp)]
- activity on this sequence ([1]; cleaves): active
- activity on this sequence [2]: active

Sequence: TATAAACTTGTGGTAGTTGGACCT (double strand) [K-ras codon 12 wild-type amplicon (5BKIT/3KiE)]
- activity on this sequence ([3]; amplification fully inhibited by BstNI in REMS-PCR, 100 mM NaCl, 50 mM Tris pH 8.3, 6 mM MgCl2 (5 mM in Ex 4)): active

Sequence: TATAAACTTGTGGTAGTTGGACCTTG / GGATGACTCATTAAGGCACTCTTGCCTACGCCC [Calu I mutant TG amplicon (5BKIT/3AKIP, 58 bp)]
- activity on this sequence ([1]; resistant): not active
- activity on this sequence [2]: active

Sequence: TATAAACTTGTGGTACCTGGAGC (double strand) [K-ras codon 12 wild-type amplicon (5BKIQ/3KiH)]
- activity on this sequence [4]: active

Sequence: GACTGAATATAAACTTGTGGTAGTTGGACCT (double strand) [K-ras wild-type amplicon (5BKIM/3AKIL, 103 bp)]
- activity on this sequence ([3]; 103 bp digested to 73 bp, NEB2, BSA, 60 C overnight, only the site is given): active

Sequence: TATAAACTTGTGGTAGTTGGACCT / CTGTATCAAAGCTTGGTCCTGGACCAG [3MKiC control amplicon (5BKIT/3MKiC, 156 bp)]
- activity on this sequence ([3]; control fragment absent in all BstNI reactions, only the site is given): active
